{"sequences": {"note": "Amino acid sequences for entries named in this document (tags omitted).", "UniProt Q5NPS6": "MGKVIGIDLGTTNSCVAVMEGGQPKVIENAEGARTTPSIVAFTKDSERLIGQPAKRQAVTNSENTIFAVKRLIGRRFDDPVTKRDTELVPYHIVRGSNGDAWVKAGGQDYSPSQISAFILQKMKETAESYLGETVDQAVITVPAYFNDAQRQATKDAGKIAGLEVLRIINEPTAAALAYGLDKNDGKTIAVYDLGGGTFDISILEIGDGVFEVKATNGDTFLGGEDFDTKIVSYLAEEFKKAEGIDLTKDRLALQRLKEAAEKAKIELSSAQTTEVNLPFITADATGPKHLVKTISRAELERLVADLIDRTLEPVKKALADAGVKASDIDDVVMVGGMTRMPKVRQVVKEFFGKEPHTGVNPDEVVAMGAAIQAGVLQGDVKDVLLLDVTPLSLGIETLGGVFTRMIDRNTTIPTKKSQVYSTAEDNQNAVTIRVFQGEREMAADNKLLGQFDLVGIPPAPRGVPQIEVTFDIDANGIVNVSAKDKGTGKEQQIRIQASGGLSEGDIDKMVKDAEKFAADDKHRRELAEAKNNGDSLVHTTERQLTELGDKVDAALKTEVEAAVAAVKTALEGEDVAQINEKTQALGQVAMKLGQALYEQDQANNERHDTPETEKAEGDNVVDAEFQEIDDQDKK"}, "source": "paper PMC9797736", "key": {"[1]": {"target": "T1, Chaperone protein DnaJ (Z. mobilis) (UniProt Q5NPS5)", "T1 sequence": "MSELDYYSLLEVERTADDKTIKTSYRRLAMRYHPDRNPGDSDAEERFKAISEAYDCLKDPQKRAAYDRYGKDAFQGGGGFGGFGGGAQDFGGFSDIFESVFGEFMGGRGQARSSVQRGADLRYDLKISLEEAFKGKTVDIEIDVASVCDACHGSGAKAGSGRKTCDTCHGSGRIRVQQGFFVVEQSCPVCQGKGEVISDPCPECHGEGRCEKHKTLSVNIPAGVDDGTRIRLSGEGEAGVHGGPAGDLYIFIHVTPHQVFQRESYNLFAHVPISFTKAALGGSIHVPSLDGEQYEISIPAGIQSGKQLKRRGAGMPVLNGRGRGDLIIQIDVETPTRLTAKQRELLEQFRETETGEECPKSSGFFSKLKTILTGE", "assay": "split reporter; YESS (TEV protease mediated Yeast Endoplasmic Reticulum Sequestration Screening): the two proteins linked with N-TEV and C-TEV, co-expressed from pESE in S. cerevisiae EBY100, induced at 30°C for 8 h; cells stained with anti-HA-FITC and/or anti-FLAG-iFlor647 and read by flow cytometry; D-value = difference of mono fluorescence signal between sample and control pESE; D-value >0 means interaction"}, "[2]": {"target": "Chaperone protein DnaK (Z. mobilis) (UniProt Q5NPS6)", "assay": "split reporter; YESS (TEV protease mediated Yeast Endoplasmic Reticulum Sequestration Screening): the two proteins linked with N-TEV and C-TEV, co-expressed from pESE in S. cerevisiae EBY100, induced at 30°C for 8 h; cells stained with anti-HA-FITC and/or anti-FLAG-iFlor647 and read by flow cytometry; D-value = difference of mono fluorescence signal between sample and control pESE; D-value >0 means interaction"}}, "note": "No constants are given. Whether binding was seen depends on the method and setting. In cells and extracts the contact can be indirect. Some binding calls cover weakened binding; strength is not graded here.", "data": [{"binder": "Hfq (protein, UniProt Q5NQN3 1-161) MAEKVNNLQDFFLNTLRKTRTPVTMFLVKGVKLQGVITWFDNFSILLRRDGQSQLVYKHAISTIIPAHPLEQLRESRSLMAERKSSLLQDVFLSAIMQQQEPVTMFLINGVMLQGEIAAFDLFCVLLTRNDDAQLVYKHAVSTVQPVKSVDLTMTERRDED", "values": [{"measurement": "binding", "setting": "[1]", "value": "binds weakly"}, {"measurement": "binding", "setting": "[2]", "value": "binds weakly"}]}]}
